Results taken from PMC2940876, “Familial hemiplegic migraine CaV2.1 channel mutation R192Q enhances ATP-gated P2X3 receptor activity of mouse sensory ganglion neurons mediating trigeminal pain” (2010).
Results are given in words; binding and its absence hold for the method and conditions named. In cells and extracts the contact can be indirect. Some entries that bind do so weakly or less than the wild type.

Target: T1, P2X3 receptor (mouse (endogenous in trigeminal ganglion neurons)) (UniProt Q3UR32)
T1 sequence: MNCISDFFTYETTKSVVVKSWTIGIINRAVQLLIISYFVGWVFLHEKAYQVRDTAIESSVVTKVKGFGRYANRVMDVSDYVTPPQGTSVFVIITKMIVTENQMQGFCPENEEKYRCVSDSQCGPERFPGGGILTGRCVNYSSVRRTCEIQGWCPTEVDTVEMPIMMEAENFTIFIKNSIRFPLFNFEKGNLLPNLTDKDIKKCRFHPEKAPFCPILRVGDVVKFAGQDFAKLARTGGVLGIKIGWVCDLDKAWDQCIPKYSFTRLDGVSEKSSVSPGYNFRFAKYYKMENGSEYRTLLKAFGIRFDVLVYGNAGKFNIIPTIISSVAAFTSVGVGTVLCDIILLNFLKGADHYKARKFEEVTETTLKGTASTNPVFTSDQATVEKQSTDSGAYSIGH
Experiment: co-IP; P2X3 receptors immunopurified from WT and CaV2.1 R192Q KI mouse trigeminal neurons, blotted with anti-Cdk5; extraction in TNE buffer (10 mM Tris-HCl pH 7.5, 150 mM NaCl, 2 mM EDTA, 100 mM NaF, 2% n-octyl beta-D-glucopyranoside, 1% NP40)

binding: binds
Substance: cyclin dependent kinase 5 (from UniProt P49615 1-292) (enzyme)
